Test results from patent publication US12084522B2, “Peptides, combination of peptides, and cell based medicaments for use in immunotherapy against urinary bladder cancer and other cancers” (Immatics Biotechnologies GmbH, priority 2016, dated 2024).
For some assays here: Expression values are those of the mRNA of the gene that encodes the peptide; a gene is named only where it was looked up.

Assays:
[1] = system: primary urinary bladder cancer tissue samples (HLA-A*02-positive) versus panel of normal tissues; assay: Identification and relative quantitation of HLA-presented tumor associated peptides by LC-MS (presentation profiles/scores); design: species or system human; key to Peptide Presentation: very highly over-presented on tumors compared to a panel of normal tissues (+++); highly over-presented on tumors compared to a panel of normal tissues (++); over-presented on tumors compared to a panel of normal tissues (+); conditions: presentation score: over-presentation on urinary bladder cancer tumors compared to a panel of normal tissues, label-free LC-MS
[2] = system: mRNA of source genes in urinary bladder cancer versus panel of normal tissues; assay: Expression profiling of genes encoding the peptides (RNAseq); design: species or system human; key: very highly over-expressed in tumors compared to a panel of normal tissues (+++); highly over-expressed in tumors compared to a panel of normal tissues (++); over-expressed in tumors compared to a panel of normal tissues (+)

“149: peptide found in ADAM10 (gene looked up) (VLLRVLILL; listed as Homo sapiens) [compound 149]” was tested, and the “Peptide Presentation” value [1] was “+” and the “Gene Expression (expression score of the source gene)” value [2] was “++”.
